Measured values reported in PubChem BioAssay AID2685 (National Center for Advancing Translational Sciences (NCATS), 2010).
This is one part of the list. These are further read-outs of the screen, such as a control signal, another cell line or another target. No call is given for them. Most of these compounds were active or inconclusive in the main read-out, so they are no random draw. The note in brackets gives the kind of curve behind each potency; many fits are weak.

Experiment: qHTS Assay for Lipid Storage Modulators in Drosophila S3 Cells;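 for cell number change: cells counted by Cell Tracker Red CMTPX staining in the red channel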
Conditions: BODIPY lipid droplet fluorescence, 18-24 h; for cell number change: measured here: cell count max response, cells fed with added oleic acid
Method in brief: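 Drosophila S3 cells loaded with oleic acid (400 uM, as added) and compounds at several concentrations; lipid droplets imaged by 488-nm laser-scanning cytometry, 500–530 nm intensity and object ratio to cell channel. Percent activity normalized to 20 uM Triacsin C.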

[1] = measured here: lipid fluorescence (Fed channel) AC50, cells fed with added oleic acid
[2] = measured here: cell number channel AC50, cells fed with added oleic acid

| SMILES | cell number change | AC50 [1] | AC50 [2] |
| --- | --- | --- | --- |
| Cc1ccc(OC(=O)c2ccc(N3CCOCC3)c([N+](=O)[O-])c2)cc1 | 103% | 1.84 µM [falling, partial curve, poor fit] | – |
| CC(C)CNC(=O)COc1ncnc2ccccc12 | -14.5% | 23.1 µM [falling, partial curve] | 0.164 µM [falling, full curve, poor fit] |
| COc1cc(Cl)c(C)cc1NC(=O)CN(C)Cc1cccc(OC)c1OC | – | 6.51 µM [rising, partial curve] | 6.51 µM [rising, partial curve, poor fit] |
| O=C(CSc1n[nH]c(=O)n1Cc1ccco1)Nc1ccccc1Cl | 12.1% | 5.17 µM [rising, full curve, poor fit] | – |
| Cc1cc(C(=O)NC2CCCC2)c2ccccc2n1 | -3.85% | 4.11 µM [rising, partial curve] | – |
| COCCCNC(=O)c1c(N)n(-c2ccc3c(c2)OCO3)c2nc3ccccc3nc12 | -22.4% | – | – |
| O=C(CSc1nccn1Cc1ccco1)Nc1ccccc1C(F)(F)F | 40.7% | 12.6 µM [rising, partial curve, poor fit] | 10 µM [rising, partial curve, poor fit] |
| COc1ccc(CSc2nnc(Cc3sc(-c4ccccc4)nc3-c3ccccc3)o2)cc1 | -18.9% | 29.1 µM [falling, single point] | – |
| CCn1cc(C(=O)O)c(=O)c2cc(F)c(N3CCN(C(=S)NC(=O)c4cc(OC)cc(OC)c4)CC3)cc21 | 34.3% | – | 29.1 µM [rising, single point] |
| CC(=O)Nc1ccc(NC=C(C#N)C#N)cc1 | – | 6.51 µM [rising, single point] | 6.51 µM [rising, single point] |
| CCOc1ccc(CCNC(=O)c2ccc(CS(=O)Cc3ccc(Cl)cc3)o2)cc1OCC (stereo not drawn) | 33.8% | – | 23.1 µM [rising, single point] |
| Cc1cccc(NNC(N)=S)c1 | 13.2% | 0.00461 µM [rising, full curve, poor fit] | – |
| O=C(NCCS(=O)(=O)NCc1cccnc1)c1ccccc1 | 17.3% | 0.164 µM [falling, full curve, poor fit] | – |
| Cc1cccc(N2CCN(C(=O)c3cc4n(n3)C(C(F)(F)F)CC(c3ccco3)N4)CC2)c1C (stereo not drawn) | -111% | 23.1 µM [falling, single point] | 29.1 µM [falling, single point] |
| COc1cc(-c2nc3cc(C)ccn3c2NC2CCCCC2)ccc1-c1ccc(C(C)=O)cc1 | -32.9% | 0.731 µM [rising, partial curve, poor fit] | 9.2 µM [falling, partial curve] |
| CCCN(CCC)CC(C)(C)NS(=O)(=O)c1ccc(Cl)cc1 | -17.9% | 0.058 µM [falling, full curve] | – |
| Cc1nc(NC(=O)c2ccco2)sc1C(=O)Nc1ccc(Br)cc1 | -7.43% | – | – |
| C/C(=N\NC(=O)c1nnn(-c2nonc2N)c1CSc1ccc(Cl)cc1)c1cccnc1 | 30.9% | – | 23.1 µM [rising, single point] |

| SMILES | cell number change | AC50 [1] | AC50 [2] |
| --- | --- | --- | --- |
| Cc1ccc(-c2nc3c(c(=O)[nH]c(=O)n3Cc3ccccc3)n2Cc2ccccc2)o1 | 20.3% | 0.092 µM [rising, full curve, poor fit] | – |
| O=C1NC(=O)/C(=C\c2ccc(Cl)nc2)S1 | 34.8% | 0.58 µM [rising, partial curve, poor fit] | 0.461 µM [rising, full curve] |
| CCOc1ccccc1-n1c(SCC(=O)Nc2ccc(CC)cc2)nc2n[nH]c(C)c2c1=N | -18% | – | – |
| CCOc1cc(C#N)c(NC(=O)c2cccnc2)cc1OCC | 26.4% | 29.1 µM [rising, single point] | – |
| Cn1cc(C(=O)NC2CCCCCC2)c(=O)c2cc(S(=O)(=O)N3CCCC3)ccc21 | -62.9% | 9.2 µM [falling, single point] | 18.4 µM [falling, single point] |
| COc1ccc(C(=O)c2ccc(Cl)cc2)c2ccccc12 | 4.88% | 6.51 µM [falling, single point] | – |
| CC1CCCN(C(=O)COC(=O)C2CCN(S(=O)(=O)c3ccc(Cl)c(C(F)(F)F)c3)CC2)C1 (stereo not drawn) | – | – | 0.82 µM [rising, single point] |
| CCn1c(SCC(=O)Nc2nc3c(s2)CCCC3)nnc1-c1ccccc1 | -44.5% | 0.00461 µM [rising, full curve, poor fit] | 13 µM [falling, partial curve] |
| O=C(N/N=C/c1ccccc1Cl)c1nc2ccc([N+](=O)[O-])cc2c(=O)[nH]1 | 7.46% | – | – |
| Cc1nc(C)n(C)c(=O)c1-c1ccccc1 | – | 6.51 µM [rising, single point] | 6.51 µM [rising, single point] |
| O=C(CNC(=O)c1ccc(Br)o1)NNC(=O)COc1ccccc1Cl | -0.268% | 0.13 µM [falling, full curve, poor fit] | – |
| NC(=O)CSc1ncnc2c1oc1ccccc12 | 88.4% | 29.1 µM [rising, single point] | 18.4 µM [rising, single point] |
| O=C(c1coc(=O)c(Br)c1)N1CCCc2ccccc21 | -6.53% | – | – |
| CCOc1ccc(NC(=O)CCC(=O)NNC(=O)c2ccccc2Cl)cc1 | -25.5% | – | 4.11 µM [falling, full curve, poor fit] |
| Cc1csc(SCC(=O)Nc2oc(C)c3c(C)n[nH]c(=O)c23)n1 | 40.8% | 0.0731 µM [rising, full curve, poor fit] | 0.184 µM [rising, full curve] |
| COc1cc(C(=O)NCC(=O)OCC(=O)c2ccc[nH]2)cc(OC)c1OC | 22.5% | 1.64 µM [falling, partial curve] | – |
| CCC(/C=N/NC(=O)CCCCC(=O)N/N=C/C(CC)CC)CC | – | 0.00517 µM [rising, full curve, poor fit] | 0.58 µM [rising, single point] |

Sorted by heavy-atom count (ascending): three of the compounds above

| SMILES | cell number change | AC50 [1] | AC50 [2] |
| --- | --- | --- | --- |
| CC(C)CNC(=O)COc1ncnc2ccccc12 | -14.5% | 23.1 µM [falling, partial curve] | 0.164 µM [falling, full curve, poor fit] |
| Cc1ccc(OC(=O)c2ccc(N3CCOCC3)c([N+](=O)[O-])c2)cc1 | 103% | 1.84 µM [falling, partial curve, poor fit] | – |
| COCCCNC(=O)c1c(N)n(-c2ccc3c(c2)OCO3)c2nc3ccccc3nc12 | -22.4% | – | – |
